Our source for the T/C values is PubChem BioAssay AID300 (DTP/NCI, 2004).

The list does not hold the whole screen: its compounds were picked by chemical class. Other doses and runs of a compound may be missing. T/C: endpoint of the treated group in % of that of the vehicle group. Where survival is the endpoint, the PubChem record calls one and a half times the control and up active, and a quarter to a half above the control has no call in these data; cut-offs in other NCI protocols can differ. Schedules are NCI's codes, taken here to give the interval after Q, in days (D) or hours (H), and the number of doses after X. Some T/C values are marked as having no survivor count here; that says nothing about deaths at the dose.

The subject of this experiment is Madison 109 lung carcinoma i.m., mice, median survival. Put plainly: NCI In Vivo Anticancer Drug Screen. Data for tumor model Madison 109 Lung Carcinoma (intramuscular) in unknown mice. The note with it: T/C endpoint: median survival time, schedule: Q01DX001 (ip), higher T/C = longer survival. How it is done:
The antitumor activity of compounds was measured in mice bearing transplantable tumors. Survival or tumor size were measured and the results are expressed as the measurement made in the treated group (T) divided by the measurement made in the vehicle treated control group (C). The tumor model used in this assay is Madison 109 Lung Carcinoma (intramuscular) in unknown mice

On to `CNc1ccccc1.O=[N+]([O-])c1cc([N+](=O)[O-])c(O)c([N+](=O)[O-])c1`, for which the T/C is 115 % of control [survivor count not shown] (dose: 125.0 mg/kg/injection, vehicle: saline); 115 % of control [survivor count not shown] (dose: 250.0 mg/kg/injection, vehicle: saline); 110 % of control [survivor count not shown] (dose: 500.0 mg/kg/injection, vehicle: saline).
For the molecule `NC(=O)c1[nH]cnc1/N=N\N(CCCl)CCCl`, the T/C runs as follows: (dose: 100.0 mg/kg/injection, vehicle: Klucel (hydroxypropylcellulose) (HPC)) 112 % of control; (dose: 200.0 mg/kg/injection, vehicle: Klucel (hydroxypropylcellulose) (HPC)) 113 % of control; (dose: 400.0 mg/kg/injection, vehicle: Klucel (hydroxypropylcellulose) (HPC)) 105 % of control; (dose: 800.0 mg/kg/injection, vehicle: Klucel (hydroxypropylcellulose) (HPC)) 101 % of control.
